These are yes or no findings as the source states them, for the method shown. Binding seen in cells or lysates may run through a third protein. Some binding calls cover weakened binding; strength is not graded here. Values belong to the molecule of their own block, whether it stands above or below them.
Assays:
[1] = molecular target: YFP-tagged dDAT-G108Q (Drosophila melanogaster) (UniProt Q7K4Y6); test: co-IP; tagged DAT precipitated with anti-GFP antibody and protein A-Sepharose at 4 °C from detergent lysates (50 mM Tris-HCl pH 8.0, 150 mM NaCl, 1% dodecyl maltoside, 1 mM EDTA) of stably transfected HEK293 cells; blots for calnexin and HSP70-1A; in Fig. 5c cells untreated or pretreated with noribogaine, pifithrin-μ or both
[2] = molecular target: CFP-tagged dDAT-G108Q (Drosophila melanogaster) (UniProt Q7K4Y6); test: as above

The chains behind the UniProt entries cited, without tags or fusion partners.
UniProt P0DMV8: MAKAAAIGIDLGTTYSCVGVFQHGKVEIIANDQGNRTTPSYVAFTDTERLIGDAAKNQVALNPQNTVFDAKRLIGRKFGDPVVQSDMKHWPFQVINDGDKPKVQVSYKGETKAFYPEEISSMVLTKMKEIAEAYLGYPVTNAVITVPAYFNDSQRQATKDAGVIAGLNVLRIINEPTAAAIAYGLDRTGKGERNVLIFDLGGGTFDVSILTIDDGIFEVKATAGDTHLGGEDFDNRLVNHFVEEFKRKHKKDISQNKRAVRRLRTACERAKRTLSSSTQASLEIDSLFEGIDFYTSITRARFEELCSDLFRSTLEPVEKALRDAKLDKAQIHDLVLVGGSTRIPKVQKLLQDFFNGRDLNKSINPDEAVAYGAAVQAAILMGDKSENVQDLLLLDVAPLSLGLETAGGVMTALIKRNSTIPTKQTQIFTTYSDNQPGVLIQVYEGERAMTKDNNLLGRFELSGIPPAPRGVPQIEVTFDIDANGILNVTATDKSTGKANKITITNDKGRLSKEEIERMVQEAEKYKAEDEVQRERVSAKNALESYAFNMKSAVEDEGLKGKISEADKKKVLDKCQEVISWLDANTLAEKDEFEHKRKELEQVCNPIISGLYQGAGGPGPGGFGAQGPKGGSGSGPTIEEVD

binding [1]: binds | binding [2]: binds
Molecule: HSP70-1A (from UniProt P0DMV8 1-641)

binding [1]: binds | binding [2]: binds
B1: calnexin (protein, UniProt P27824 21-592)
chain: HDGHDDDVIDIEDDLDDVIEEVEDSKPDTTAPPSSPKVTYKAPVPTGEVYFADSFDRGTLSGWILSKAKKDDTDDEIAKYDGKWEVEEMKESKLPGDKGLVLMSRAKHHAISAKLNKPFLFDTKPLIVQYEVNFQNGIECGGAYVKLLSKTPELNLDQFHDKTPYTIMFGPDKCGEDYKLHFIFRHKNPKTGIYEEKHAKRPDADLKTYFTDKKTHLYTLILNPDNSFEILVDQSVVNSGNLLNDMTPPVNPSREIEDPEDRKPEDWDERPKIPDPEAVKPDDWDEDAPAKIPDEEATKPEGWLDDEPEYVPDPDAEKPEDWDEDMDGEWEAPQIANPRCESAPGCGVWQRPVIDNPNYKGKWKPPMIDNPSYQGIWKPRKIPNPDFFEDLEPFRMTPFSAIGLELWSMTSDIFFDNFIICADRRIVDDWANDGWGLKKAADGAAEPGVVGQMIEAAEERPWLWVVYILTVALPVFLVILFCCSGKKQTSGMEYKKTDAPQPDVKEEEEEKEEEKDKGDEEEEGEEKLEEKQKSDAEEDGGTVSQEEEDRKPKAEEDEILNRSPRNRKPRRE
